# The other results are listed elsewhere or left out. The data scatter; read single values as rough.
# Chains of the proteins cited; added tags and fusions are not shown. Lines headed by an entry give the natural chain unless they say otherwise; changes in a name come on top.
# UniProt Q07912: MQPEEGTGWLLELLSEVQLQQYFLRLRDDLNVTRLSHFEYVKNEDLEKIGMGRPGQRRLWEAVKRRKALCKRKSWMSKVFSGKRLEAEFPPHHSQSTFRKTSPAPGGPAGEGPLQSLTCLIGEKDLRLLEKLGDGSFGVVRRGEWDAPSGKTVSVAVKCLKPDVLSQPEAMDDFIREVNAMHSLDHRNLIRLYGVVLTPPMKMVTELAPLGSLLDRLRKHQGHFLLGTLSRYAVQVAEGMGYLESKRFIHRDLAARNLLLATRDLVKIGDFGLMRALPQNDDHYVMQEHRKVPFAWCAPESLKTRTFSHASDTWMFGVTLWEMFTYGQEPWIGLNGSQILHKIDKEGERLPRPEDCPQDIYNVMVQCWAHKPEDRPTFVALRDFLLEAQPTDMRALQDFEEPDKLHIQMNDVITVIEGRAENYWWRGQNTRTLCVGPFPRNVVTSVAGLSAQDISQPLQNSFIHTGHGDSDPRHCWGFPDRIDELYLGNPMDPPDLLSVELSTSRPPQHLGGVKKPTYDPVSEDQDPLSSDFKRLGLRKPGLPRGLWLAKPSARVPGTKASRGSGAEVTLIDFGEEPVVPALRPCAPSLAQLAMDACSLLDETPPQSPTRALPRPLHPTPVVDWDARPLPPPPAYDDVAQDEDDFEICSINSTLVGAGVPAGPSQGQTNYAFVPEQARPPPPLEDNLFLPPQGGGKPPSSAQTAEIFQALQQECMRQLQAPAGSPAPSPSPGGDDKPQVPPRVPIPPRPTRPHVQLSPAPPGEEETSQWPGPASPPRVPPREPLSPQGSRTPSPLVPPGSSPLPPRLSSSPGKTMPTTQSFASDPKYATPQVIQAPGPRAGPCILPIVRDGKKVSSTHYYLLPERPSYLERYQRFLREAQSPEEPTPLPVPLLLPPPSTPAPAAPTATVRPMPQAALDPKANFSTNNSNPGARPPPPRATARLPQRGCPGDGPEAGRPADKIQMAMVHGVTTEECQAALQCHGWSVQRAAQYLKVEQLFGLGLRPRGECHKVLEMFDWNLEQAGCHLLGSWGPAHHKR
# UniProt Q9UBN6: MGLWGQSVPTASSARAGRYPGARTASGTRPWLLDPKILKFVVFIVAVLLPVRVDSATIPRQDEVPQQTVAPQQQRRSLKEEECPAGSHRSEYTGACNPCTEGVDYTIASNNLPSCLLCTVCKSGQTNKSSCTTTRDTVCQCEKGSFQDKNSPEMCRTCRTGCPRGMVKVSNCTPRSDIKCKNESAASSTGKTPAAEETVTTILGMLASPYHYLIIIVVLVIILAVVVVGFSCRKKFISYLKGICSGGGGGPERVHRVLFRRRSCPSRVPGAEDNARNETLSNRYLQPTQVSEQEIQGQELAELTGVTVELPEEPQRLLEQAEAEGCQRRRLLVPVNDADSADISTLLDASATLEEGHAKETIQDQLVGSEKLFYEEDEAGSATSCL
# UniProt P50616: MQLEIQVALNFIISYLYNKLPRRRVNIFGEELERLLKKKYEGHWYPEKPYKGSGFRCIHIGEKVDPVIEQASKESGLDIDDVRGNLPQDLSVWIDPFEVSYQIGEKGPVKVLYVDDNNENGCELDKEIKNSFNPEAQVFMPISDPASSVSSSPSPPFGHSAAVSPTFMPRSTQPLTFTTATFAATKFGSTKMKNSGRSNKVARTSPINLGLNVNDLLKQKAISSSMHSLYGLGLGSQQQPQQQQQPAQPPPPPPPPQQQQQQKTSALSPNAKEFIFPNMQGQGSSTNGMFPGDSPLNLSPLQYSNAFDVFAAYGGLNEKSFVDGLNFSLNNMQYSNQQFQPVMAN
# UniProt O43734: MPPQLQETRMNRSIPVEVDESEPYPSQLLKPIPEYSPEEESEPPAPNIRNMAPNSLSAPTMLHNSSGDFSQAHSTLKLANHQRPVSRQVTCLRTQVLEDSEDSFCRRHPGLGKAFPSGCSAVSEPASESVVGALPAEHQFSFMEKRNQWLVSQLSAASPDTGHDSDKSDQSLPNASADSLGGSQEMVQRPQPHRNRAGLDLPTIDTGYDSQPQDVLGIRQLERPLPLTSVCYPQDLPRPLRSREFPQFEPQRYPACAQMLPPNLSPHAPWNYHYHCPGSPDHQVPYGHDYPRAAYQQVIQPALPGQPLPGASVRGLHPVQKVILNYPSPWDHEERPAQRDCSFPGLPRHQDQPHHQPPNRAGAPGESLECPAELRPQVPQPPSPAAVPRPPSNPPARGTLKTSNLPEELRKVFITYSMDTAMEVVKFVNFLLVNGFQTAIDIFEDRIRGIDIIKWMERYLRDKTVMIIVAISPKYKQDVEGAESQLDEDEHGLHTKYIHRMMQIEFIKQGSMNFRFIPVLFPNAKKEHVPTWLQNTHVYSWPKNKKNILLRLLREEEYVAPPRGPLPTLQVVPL
# UniProt O43715: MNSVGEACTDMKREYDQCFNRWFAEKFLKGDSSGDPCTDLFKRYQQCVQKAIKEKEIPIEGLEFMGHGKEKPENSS
# UniProt O15164: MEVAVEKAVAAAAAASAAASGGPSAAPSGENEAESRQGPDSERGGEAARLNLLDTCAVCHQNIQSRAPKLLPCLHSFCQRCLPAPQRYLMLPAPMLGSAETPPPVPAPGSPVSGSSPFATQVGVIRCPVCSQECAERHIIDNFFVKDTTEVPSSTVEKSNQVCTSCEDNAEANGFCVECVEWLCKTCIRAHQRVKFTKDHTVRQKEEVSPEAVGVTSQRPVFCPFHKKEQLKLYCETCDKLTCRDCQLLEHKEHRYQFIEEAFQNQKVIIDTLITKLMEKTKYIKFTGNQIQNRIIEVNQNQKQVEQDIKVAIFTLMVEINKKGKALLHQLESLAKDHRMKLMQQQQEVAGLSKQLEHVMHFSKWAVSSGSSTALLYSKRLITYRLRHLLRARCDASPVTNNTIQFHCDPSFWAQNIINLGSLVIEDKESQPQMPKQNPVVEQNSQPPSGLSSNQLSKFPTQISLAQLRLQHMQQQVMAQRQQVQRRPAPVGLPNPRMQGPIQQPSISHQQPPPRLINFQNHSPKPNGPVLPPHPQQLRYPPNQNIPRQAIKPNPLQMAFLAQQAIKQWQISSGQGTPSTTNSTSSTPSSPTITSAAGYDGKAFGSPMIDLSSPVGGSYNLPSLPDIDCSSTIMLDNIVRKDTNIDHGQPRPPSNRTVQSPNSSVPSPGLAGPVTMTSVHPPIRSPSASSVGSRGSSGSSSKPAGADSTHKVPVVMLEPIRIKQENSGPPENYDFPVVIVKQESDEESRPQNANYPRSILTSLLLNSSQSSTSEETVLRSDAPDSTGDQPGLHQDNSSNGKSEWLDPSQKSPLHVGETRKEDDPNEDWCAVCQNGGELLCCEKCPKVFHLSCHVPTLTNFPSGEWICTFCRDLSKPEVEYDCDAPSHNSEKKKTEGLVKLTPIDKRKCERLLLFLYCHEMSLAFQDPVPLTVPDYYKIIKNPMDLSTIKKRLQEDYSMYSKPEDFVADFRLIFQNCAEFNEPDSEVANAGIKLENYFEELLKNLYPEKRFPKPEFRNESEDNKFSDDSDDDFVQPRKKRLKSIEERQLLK
# UniProt Q96K49: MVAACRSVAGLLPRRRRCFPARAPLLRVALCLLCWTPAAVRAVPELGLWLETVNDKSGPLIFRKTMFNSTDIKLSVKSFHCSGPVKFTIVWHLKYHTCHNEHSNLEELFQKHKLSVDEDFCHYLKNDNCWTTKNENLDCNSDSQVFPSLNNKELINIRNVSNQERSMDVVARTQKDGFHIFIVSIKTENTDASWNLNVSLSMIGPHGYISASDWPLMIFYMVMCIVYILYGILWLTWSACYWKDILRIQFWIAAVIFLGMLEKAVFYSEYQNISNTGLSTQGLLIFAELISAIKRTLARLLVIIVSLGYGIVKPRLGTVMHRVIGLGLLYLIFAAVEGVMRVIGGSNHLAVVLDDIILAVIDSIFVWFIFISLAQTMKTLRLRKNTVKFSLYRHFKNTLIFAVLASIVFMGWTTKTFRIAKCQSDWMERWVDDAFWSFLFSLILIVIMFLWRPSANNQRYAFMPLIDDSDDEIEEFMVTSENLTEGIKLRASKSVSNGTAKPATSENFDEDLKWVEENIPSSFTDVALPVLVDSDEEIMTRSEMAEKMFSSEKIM
# UniProt Q9Y490: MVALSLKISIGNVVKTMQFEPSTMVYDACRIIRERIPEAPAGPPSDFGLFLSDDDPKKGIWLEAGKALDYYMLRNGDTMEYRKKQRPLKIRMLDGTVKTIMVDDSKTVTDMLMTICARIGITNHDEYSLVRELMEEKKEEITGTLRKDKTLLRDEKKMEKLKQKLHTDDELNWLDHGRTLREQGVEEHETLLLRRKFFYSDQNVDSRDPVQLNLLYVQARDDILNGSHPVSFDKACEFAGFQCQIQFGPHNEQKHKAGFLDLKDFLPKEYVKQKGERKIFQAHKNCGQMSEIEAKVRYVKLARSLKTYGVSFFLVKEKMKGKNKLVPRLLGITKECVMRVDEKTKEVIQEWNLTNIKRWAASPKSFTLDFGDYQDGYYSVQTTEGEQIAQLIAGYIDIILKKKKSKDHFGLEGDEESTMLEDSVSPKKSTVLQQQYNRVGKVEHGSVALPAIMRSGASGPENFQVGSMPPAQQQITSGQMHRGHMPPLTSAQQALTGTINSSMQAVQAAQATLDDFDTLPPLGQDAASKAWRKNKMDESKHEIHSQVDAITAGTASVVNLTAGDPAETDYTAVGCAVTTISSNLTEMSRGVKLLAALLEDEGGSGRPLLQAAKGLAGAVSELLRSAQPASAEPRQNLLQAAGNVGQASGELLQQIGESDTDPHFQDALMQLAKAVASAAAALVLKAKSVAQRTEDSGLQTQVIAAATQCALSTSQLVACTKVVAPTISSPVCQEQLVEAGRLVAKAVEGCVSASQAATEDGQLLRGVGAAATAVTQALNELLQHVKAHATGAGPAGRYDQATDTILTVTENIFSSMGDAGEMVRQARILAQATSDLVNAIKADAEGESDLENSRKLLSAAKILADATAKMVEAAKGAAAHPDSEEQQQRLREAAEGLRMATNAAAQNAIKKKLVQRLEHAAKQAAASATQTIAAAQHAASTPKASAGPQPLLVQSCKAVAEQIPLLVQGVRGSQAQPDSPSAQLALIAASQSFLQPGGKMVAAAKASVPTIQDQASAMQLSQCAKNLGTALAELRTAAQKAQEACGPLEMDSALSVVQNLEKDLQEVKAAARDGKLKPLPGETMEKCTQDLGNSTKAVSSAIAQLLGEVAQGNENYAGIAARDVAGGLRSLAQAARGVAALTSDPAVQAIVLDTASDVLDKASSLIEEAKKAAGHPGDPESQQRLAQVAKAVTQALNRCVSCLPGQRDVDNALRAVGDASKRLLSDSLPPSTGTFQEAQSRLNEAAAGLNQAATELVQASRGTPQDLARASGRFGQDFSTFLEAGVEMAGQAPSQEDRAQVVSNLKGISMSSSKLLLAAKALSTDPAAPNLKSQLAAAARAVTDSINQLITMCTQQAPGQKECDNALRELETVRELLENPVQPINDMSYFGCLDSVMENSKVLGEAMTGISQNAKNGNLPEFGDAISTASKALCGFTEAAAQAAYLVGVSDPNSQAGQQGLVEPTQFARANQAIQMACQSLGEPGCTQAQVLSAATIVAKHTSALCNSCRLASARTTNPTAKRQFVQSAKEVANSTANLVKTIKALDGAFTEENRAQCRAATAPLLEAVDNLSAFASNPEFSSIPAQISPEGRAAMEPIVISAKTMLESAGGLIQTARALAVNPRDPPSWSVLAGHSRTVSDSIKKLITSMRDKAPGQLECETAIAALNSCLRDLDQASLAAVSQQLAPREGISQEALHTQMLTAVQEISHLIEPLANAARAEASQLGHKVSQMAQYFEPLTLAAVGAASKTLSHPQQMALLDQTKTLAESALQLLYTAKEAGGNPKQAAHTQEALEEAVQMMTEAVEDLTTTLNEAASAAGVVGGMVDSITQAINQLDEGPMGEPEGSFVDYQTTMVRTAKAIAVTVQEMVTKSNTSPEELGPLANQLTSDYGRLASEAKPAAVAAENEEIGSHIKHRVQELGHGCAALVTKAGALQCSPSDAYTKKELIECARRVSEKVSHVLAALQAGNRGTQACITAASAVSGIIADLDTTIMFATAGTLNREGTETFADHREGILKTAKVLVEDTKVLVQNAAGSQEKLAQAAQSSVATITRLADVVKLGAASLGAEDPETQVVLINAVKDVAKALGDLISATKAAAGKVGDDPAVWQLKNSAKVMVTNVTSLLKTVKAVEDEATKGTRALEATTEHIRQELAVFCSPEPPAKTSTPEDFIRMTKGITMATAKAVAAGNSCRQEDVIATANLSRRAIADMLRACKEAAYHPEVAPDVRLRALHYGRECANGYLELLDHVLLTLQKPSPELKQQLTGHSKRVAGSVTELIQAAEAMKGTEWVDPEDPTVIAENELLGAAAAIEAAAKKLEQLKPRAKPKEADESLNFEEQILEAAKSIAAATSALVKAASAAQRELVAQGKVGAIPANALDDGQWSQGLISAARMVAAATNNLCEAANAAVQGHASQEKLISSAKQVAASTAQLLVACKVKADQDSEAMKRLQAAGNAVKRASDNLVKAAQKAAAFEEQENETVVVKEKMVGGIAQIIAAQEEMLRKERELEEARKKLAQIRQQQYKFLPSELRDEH
# Columns and labels:
# [1] = compound: ClCC(=O)N[C@@H]1CCCc2ccccc12; assay: log2 mean competition ratio of IA-DTB cysteine labelling (DMSO/compound) (log2 ratio); higher = stronger cysteine engagement by compound; conditions: treatment time: 4 h, cell line lysate: HEK293T
# Procedure: (§1)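 IA-DTB competitive cysteine chemoproteomics in HEK293T RIPA lysate. Lysates were treated with compound 29 or 30 at 50 or 200 µM for 4 h, then IA-DTB (500 µM, 1 h), trypsin-digested, NeutrAvidin-enriched and analysed by diaPASEF. Competition ratio = intensity DMSO / intensity compound (n=4 treated, n=64 DMSO); binding: mean log2 CR ≥ 1 and p ≤ 0.05 plus QC filters. Target is the cysteine site.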
# [2] = compound: ClCC(=O)N[C@H]1CCCc2ccccc12; assay: as above; conditions: treatment time: 4 h, cell line lysate: HEK293T
# Procedure: as §1
Target,log2 mean competition ratio ([1]; 50 µM),log2 mean competition ratio ([1]; 200 µM),log2 mean competition ratio ([2]; 50 µM),log2 mean competition ratio ([2]; 200 µM)
TOP1 C386 (UniProt P11387),-0.233,-0.0382,0.0118,0.609
TPR C224 (UniProt P12270),0.429,-0.354,0.276,-0.402
TM9SF2 C250 (UniProt Q99805),0.0849,0.0393,-0.0754,-0.0731
TONSL C1365 (UniProt Q96HA7),-0.102,0.191,0.0672,0.0637
TNS3 C615 (UniProt Q68CZ2),0.0412,-0.192,-0.0147,0.0187
TIGD2 C102,-0.0696,0.181,-0.123,0.136
TMEM131L C752,-0.0205,0.534,0.0879,0.299
TNKS1BP1 C136 (UniProt Q9C0C2),0.0397,-0.0175,0.278,0.00604
TNK2 C843 (UniProt Q07912),0.0341,0.0976,-0.142,0.285
TRAPPC8 C943 (UniProt Q9Y2L5),-0.0845,0.0137,-0.432,-0.104
TRIM14 C20 (UniProt Q14142),0.00393,0.0962,-0.139,0.0565
TRIM41 C551 (UniProt Q8WV44),-0.285,0.322,-0.213,-0.0283
TLE3 C26,-0.254,-0.00262,0.00116,0.0742
TRAPPC11 C658 (UniProt Q7Z392),-0.274,-0.36,0.267,-0.204
TNFRSF10D C326 (UniProt Q9UBN6),0.0898,0.0635,0.468,-0.0348
TRAFD1 C109 (UniProt O14545),-0.261,-0.167,0.0908,0.0289
TOB1 C122 (UniProt P50616),-0.406,-0.0646,-0.189,-0.0873
TRAF3IP2 C341 (UniProt O43734),0.322,0.119,-0.18,0.291
TMEM214 C529 (UniProt Q6NUQ4),0.155,-0.179,-0.192,-0.129
TINF2 C332,-0.072,-0.163,0.0385,-0.0476
TRIP12 C1538 (UniProt Q14669),-0.138,-0.238,0.0674,0.195
TRIM33 C943,-0.0469,-0.067,-0.125,-0.219
TNPO3 C793 (UniProt Q9Y5L0),0.155,1.11,0.503,1.19

# In another format: results already given.
Target | log2 mean competition ratio ([1]; 50 µM) | log2 mean competition ratio ([1]; 200 µM) | log2 mean competition ratio ([2]; 50 µM) | log2 mean competition ratio ([2]; 200 µM)
TPR C224 (UniProt P12270) | 0.429 | -0.354 | 0.276 | -0.402
TONSL C1365 (UniProt Q96HA7) | -0.102 | 0.191 | 0.0672 | 0.0637
TINF2 C332 | -0.072 | -0.163 | 0.0385 | -0.0476

# (continued)

Target,log2 mean competition ratio ([1]; 50 µM),log2 mean competition ratio ([1]; 200 µM),log2 mean competition ratio ([2]; 50 µM),log2 mean competition ratio ([2]; 200 µM)
TMEM131L C950,0.166,-0.188,0.226,-0.0751
TOMM70 C176 (UniProt O94826),-0.0558,0.16,0.0148,0.0329
TMCO4 C537 (UniProt Q5TGY1),0.464,0.179,0.00392,0.223
TLE3 C528,0.143,-0.113,-0.039,-0.149
TOMM70 C317 (UniProt O94826),-0.174,-0.187,-0.0658,-0.0893
TMPO C341,-0.00845,0.108,0.199,0.192
TRIO C2136 (UniProt O75962),0.0117,0.101,-0.1,0.00906
TRIAP1 C47 (UniProt O43715),-0.159,0.395,-0.0465,0.562
TRIM24 C81 (UniProt O15164),-0.0586,0.0246,0.09,0.0765
TM9SF2 C194 (UniProt Q99805),-0.171,-0.0745,-0.647,-0.0858
TMEM214 C222 (UniProt Q6NUQ4),0.529,-0.158,-0.256,-0.231
TPMT C70 (UniProt P51580),-0.0236,-0.245,0.255,-0.0184
TRIM33 C461,0.0999,0.357,-0.0812,0.328
TMEM131 C1747 (UniProt Q92545),0.509,0.239,0.599,-0.0467
TIMMDC1 C78 (UniProt Q9NPL8),-0.183,0.0595,0.0889,0.193
TRAFD1 C83 (UniProt O14545),-0.116,0.552,0.116,-0.0536
TOP3B C190 (UniProt O95985),0.0871,-0.0672,-0.0876,0.0931
TMEM87B C129 (UniProt Q96K49),-0.0462,0.11,0.0815,0.371
TLN1 C1927 (UniProt Q9Y490),-0.273,-0.354,-0.172,-0.49
TLE5 C26 (UniProt Q08117),-0.0811,0.216,0.0076,0.209
TMLHE C85 (UniProt Q9NVH6),-0.0372,0.317,-0.0265,-0.015
TPRN C536 (UniProt Q4KMQ1),-0.472,0.299,-0.0991,0.0508

# From the supplement of paper PMC11732987, “Enantioselective OTUD7B fragment discovery through chemoproteomics screening and high-throughput optimisation” (Communications Chemistry, 2025)
